Some results were stated once for a whole list of compounds, not compound by compound.
Experiments:
Type in all cases: in vivo
Rhynchosporium secalis = assay: Barley scald control test, foliar spray on barley (Test Example 14); settings: 200 ppm, barley (Mikamo Golden), inoculated 2 days after application
Septoria tritici = assay: Wheat Septoria control test, foliar spray on wheat (Test Examples 5, 11); settings: wheat (Apogee), inoculated 4 days after application
Phakopsora pachyrhizi = assay: Soybean rust control test, foliar spray on soybean (Test Example 13); settings: 200 ppm, soybean (Kurosengoku), inoculated 2 days after application
Pyrenophora teres = assay: Barley net blotch control test, foliar spray on barley (Test Examples 3, 9); settings: barley (Mikamo Golden), inoculated 2 days after application

Measured: infected area of the treated plant relative to that of the untreated plant

CON=C(c1ccc(OCc2c(C3CC3)cccc2-n2nnn(C)c2=O)c(C)c1)C(C)C [Compound 65, 1-{2-[2-methyl-4-(1-methoxyimino-2-methyl-propyl)-phenoxymethyl]-3-cyclohexyl-phenyl}-4-methyl-1,4-dihydrotetrazol-5-one]
≤ 30%: Rhynchosporium secalis | Septoria tritici; Test Example 5, 500 ppm | Septoria tritici; Test Example 11, 200 ppm | Phakopsora pachyrhizi | Pyrenophora teres; Test Example 3, 500 ppm | Pyrenophora teres; Test Example 9, 200 ppm

— patent publication US9560850B2, “Tetrazolinone compound and use thereof” (SUMITOMO CHEMICAL COMPANY, LIMITED, priority 2012, dated 2017)
